Source: the supplement of paper PMC3334620
The full ranking holds about 33,000 sequences; the median of “E-score (-0.5 to 0.5)” is about -0.0034, and the highest 2% start at about 0.25. The list shows a part of the results.

These sequences were tested against T1, Yap3 (UniProt P38749) (assay: PBM E-score (8-mer binding enrichment) (E-score (-0.5 to 0.5)); higher = stronger / more preferred TF binding). Details: protein concentration: 100 nM; construct: GST-full length.
T1 sequence: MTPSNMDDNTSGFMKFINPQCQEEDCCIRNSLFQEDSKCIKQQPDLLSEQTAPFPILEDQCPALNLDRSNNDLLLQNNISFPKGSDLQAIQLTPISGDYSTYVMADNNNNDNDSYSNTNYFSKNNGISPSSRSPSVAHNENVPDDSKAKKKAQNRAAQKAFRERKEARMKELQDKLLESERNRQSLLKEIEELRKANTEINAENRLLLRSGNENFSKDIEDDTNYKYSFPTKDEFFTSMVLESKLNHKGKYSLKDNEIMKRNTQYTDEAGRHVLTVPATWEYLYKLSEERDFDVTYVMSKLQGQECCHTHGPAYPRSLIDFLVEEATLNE
Protocol: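 Universal 'all 10-mer' protein binding microarrays (Agilent AMADID 015681) probed with GST-tagged S. cerevisiae TFs (full-length or DBD) made by in vitro transcription/translation (PURExpress), about 100-200 nM. Bound TF was detected with fluorescent anti-GST. Each ungapped 8-mer (which stands for itself and its reverse complement) is scored by the PBM enrichment score (E-score), a modified Wilcoxon-Mann-Whitney statistic from -0.5 to +0.5, computed with the Universal PBM Analysis Suite. Scale: above 0.35 generally sequence-specific binding.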

Sequence | PBM E-score
TACCGAAA | 0.0737
AACAAGCG | 0.178
ATGCTTAG | 0.17
AAGAAGCT | -0.0904
AACATGGT | 0.0858
GGAGCTAA | -0.0484
CAAACTCC | -0.0365
GATAGGCA | 0.00307
AGAGACAA | -0.077
TGAGCTAA | -0.0651
AGGATTAA | 0.177
CGCGTGAA | 0.0861
GAACTGGA | 0.0625
TATGAAAA | 0.225
ATGGTCAG | 0.202
GCCGACCA | -0.174
CATAGGGG | -0.078
GGACGCCA | -0.117
AGGTAAGG | 0.0835
CGAGCCGC | 0.0378
ATCCTAAC | 0.124
AGACTACT | 0.0569

Shown with each value named: entries from further up
ATGCTTAG
  PBM E-score = 0.17
GATAGGCA
  PBM E-score = 0.00307
AGAGACAA
  PBM E-score = -0.077
TGAGCTAA
  PBM E-score = -0.0651

Next part:

Sequence | PBM E-score
ACAAATGA | 0.0725
TAGGAAAA | 0.0741
CAATATTA | 0.226
CTCCTAAA | -0.21
ACCGCTTA | -0.038
CCGTCTTA | -0.151
CCCTGTCC | -0.276
AATGAAGC | 0.0863
GACTTGAC | -0.115
CAGCAAGA | 0.142
CTGCAAAC | -0.12
CGCCATTA | 0.023
ATGTAATC | 0.121
GCGGCAAA | 0.00339
AATCCCCC | -0.229
CGAATGTA | 0.0967
AATCGCTG | -0.0893
AGAGCTGA | -0.13
AGAGATTG | 0.0916
AGTCGGCA | -0.0266
GCGCAGCC | -0.256
AGGCGGAG | -0.0405

Sequence | PBM E-score
ATTGTTCC | 0.13
AAGCTCGG | -0.0555
AAGTCACT | 0.0396
CACACGTC | -0.065
ACTCCCGG | -0.2
CAGATGTC | -0.0742
GGCTGCCA | -0.278
CCCCGTAC | -0.231
AACGGAGC | -0.11
TCATCAGA | -0.0246
ACCCATGC | 0.0299
AGACACCG | -0.11
TATTTCGA | 0.293
AACCAACG | -0.126
GGTGGTAC | -0.223
ATGACAGC | 0.0738
GAGGAAGC | -0.268
GATGGAGA | 0.0511
CCTCCCTA | -0.2
CTCAGCTC | -0.181
CGACCAAC | -0.0192
AATACTAG | 0.221

Sequence | PBM E-score
GGGAACAC | 0.0871
AAGATCTC | -0.15
CTCTACCC | 0.0889
CTTTAAGC | 0.0717
CTCGATCC | -0.0821
ACGGGGCC | -0.182
AGACCACG | -0.103
GTGCGAAA | 0.0342
GTGGAAAA | 0.171
AGGACTTC | -0.239
AAACAAGA | 0.183
AGCAGCGC | -0.0668
GGTGAGTA | 0.0543
AGACCCAA | 0.0569
CGCGCCAC | 0.0775
CACTCATC | 0.0972
CCAGCGTC | -0.304
AGTAGCAA | 0.147
CAAAACCC | 0.11
ACACGAAA | 0.116
